log2 fold change data for 24 targets are collected here from the supplement of paper PMC10849652.

Protein sequences, listed by entry. Tags and fused reporters are not part of them. Lines headed by an entry give the natural chain unless they say otherwise; changes in a name come on top.
UniProt P78330: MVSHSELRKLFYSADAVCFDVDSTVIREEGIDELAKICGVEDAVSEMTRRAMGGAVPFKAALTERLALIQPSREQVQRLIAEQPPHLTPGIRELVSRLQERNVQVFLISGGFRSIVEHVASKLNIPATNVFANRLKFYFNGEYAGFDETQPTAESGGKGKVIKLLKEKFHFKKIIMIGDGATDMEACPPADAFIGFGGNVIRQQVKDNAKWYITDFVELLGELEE
UniProt Q9BXR0: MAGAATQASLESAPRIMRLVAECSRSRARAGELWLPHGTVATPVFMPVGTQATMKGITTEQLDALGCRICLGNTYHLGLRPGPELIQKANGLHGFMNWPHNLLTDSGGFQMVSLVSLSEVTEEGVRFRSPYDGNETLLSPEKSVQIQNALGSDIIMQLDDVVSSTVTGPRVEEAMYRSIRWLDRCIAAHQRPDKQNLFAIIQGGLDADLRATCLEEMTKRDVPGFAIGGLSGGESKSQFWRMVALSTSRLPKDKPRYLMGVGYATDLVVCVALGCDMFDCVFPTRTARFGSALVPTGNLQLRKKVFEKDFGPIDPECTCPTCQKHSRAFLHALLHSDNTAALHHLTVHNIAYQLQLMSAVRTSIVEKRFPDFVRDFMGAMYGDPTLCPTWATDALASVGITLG
UniProt P20742, whole entry, looked up: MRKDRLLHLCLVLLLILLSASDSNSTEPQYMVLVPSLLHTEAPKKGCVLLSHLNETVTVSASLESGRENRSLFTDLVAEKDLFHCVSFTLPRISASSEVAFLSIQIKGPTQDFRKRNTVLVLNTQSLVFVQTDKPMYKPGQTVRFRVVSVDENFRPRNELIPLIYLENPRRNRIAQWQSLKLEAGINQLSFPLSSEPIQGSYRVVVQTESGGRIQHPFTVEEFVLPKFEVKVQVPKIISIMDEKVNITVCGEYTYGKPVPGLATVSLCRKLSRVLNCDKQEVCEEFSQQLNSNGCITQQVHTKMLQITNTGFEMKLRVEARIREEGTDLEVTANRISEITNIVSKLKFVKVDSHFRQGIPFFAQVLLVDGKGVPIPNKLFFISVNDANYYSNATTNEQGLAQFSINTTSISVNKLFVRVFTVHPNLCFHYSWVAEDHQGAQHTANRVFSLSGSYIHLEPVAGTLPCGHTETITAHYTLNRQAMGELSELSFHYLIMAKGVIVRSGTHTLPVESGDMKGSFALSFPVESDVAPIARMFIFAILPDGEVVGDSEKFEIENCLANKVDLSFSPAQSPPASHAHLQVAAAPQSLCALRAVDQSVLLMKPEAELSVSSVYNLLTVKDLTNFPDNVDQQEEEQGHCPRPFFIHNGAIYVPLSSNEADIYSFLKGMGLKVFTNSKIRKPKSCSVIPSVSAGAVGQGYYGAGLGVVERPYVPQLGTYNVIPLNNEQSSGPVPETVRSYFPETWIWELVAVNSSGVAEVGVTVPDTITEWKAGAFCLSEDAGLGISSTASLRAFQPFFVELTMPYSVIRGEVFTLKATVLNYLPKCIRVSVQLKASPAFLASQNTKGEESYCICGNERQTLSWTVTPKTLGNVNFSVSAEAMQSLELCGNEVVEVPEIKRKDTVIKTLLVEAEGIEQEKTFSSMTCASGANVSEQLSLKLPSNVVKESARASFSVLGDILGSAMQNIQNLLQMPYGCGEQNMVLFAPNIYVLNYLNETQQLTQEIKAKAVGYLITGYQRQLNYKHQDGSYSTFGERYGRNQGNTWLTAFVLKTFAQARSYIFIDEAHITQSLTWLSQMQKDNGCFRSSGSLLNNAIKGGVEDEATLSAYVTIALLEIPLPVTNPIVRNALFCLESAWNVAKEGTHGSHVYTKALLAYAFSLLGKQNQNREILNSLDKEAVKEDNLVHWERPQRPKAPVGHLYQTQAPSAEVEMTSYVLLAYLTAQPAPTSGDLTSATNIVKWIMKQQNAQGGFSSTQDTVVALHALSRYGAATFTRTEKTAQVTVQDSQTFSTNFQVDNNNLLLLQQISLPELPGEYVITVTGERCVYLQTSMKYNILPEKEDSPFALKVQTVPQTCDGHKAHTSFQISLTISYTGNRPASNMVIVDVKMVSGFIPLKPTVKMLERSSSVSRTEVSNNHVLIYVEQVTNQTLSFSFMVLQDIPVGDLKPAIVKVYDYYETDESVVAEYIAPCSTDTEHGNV
UniProt P20962: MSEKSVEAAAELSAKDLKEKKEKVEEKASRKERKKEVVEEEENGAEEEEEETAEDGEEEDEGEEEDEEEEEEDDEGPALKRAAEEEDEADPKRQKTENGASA
UniProt Q8TAA3: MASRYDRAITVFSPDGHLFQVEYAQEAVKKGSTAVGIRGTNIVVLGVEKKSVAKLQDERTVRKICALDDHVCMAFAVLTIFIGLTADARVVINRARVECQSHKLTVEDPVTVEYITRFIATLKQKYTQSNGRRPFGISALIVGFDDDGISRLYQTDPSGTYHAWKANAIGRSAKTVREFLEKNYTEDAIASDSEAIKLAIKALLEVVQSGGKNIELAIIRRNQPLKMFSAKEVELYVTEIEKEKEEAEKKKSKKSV
UniProt P09417: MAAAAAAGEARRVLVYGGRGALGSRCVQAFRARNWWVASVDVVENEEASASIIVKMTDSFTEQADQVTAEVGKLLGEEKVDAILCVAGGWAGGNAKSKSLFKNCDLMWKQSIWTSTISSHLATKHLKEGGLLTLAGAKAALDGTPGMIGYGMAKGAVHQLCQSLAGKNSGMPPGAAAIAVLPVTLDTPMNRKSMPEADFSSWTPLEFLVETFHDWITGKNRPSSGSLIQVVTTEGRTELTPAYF
UniProt Q06323: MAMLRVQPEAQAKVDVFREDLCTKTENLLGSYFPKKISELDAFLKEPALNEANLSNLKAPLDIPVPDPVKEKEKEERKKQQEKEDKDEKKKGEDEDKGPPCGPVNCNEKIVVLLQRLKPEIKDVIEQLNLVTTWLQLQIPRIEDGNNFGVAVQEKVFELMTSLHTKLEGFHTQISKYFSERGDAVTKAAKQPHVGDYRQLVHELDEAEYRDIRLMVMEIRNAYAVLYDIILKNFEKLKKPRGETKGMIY
UniProt P20618: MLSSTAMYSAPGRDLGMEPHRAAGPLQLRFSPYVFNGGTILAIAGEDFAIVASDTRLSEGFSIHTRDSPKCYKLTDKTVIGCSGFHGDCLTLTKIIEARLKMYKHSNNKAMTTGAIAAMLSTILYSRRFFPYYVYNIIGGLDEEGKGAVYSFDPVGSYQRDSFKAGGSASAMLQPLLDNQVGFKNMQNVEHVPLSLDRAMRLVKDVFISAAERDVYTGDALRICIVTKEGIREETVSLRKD
UniProt P18433: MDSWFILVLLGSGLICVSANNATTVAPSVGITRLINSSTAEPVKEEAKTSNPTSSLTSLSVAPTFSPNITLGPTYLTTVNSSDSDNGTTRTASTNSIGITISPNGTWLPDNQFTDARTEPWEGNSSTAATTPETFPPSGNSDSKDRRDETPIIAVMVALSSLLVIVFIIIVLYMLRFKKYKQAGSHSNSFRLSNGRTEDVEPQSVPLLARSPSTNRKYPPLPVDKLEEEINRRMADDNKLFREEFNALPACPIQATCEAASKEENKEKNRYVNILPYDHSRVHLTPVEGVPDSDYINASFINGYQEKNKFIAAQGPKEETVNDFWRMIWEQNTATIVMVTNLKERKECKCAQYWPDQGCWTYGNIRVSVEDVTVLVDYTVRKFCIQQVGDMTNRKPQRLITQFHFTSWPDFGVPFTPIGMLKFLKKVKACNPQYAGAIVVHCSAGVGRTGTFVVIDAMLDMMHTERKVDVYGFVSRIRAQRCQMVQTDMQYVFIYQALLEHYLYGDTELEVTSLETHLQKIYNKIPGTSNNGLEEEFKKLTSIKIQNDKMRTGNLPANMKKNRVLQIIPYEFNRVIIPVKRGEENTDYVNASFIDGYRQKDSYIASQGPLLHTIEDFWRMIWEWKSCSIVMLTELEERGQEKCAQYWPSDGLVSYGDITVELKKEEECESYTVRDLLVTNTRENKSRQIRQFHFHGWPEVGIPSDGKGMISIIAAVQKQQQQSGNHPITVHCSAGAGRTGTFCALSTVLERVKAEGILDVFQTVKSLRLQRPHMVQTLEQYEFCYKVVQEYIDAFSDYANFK
UniProt P55036: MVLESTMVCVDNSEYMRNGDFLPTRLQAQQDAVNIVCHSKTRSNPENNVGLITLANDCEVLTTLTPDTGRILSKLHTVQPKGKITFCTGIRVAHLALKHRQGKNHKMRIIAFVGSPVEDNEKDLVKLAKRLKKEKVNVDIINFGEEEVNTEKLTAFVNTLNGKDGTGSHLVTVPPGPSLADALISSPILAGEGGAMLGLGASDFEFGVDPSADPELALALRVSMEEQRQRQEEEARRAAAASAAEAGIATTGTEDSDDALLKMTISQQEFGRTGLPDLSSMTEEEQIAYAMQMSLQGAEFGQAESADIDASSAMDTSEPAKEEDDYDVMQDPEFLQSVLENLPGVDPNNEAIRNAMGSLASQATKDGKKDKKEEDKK
UniProt O00487, whole entry, looked up: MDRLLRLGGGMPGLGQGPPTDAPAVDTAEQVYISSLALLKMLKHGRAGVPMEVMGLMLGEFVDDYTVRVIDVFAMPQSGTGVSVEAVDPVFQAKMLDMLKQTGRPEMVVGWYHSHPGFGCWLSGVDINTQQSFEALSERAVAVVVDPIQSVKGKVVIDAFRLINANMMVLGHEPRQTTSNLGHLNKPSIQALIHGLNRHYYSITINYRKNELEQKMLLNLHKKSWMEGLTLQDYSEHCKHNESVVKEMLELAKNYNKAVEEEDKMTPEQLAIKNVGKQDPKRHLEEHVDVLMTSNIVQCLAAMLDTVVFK
UniProt Q8TB72: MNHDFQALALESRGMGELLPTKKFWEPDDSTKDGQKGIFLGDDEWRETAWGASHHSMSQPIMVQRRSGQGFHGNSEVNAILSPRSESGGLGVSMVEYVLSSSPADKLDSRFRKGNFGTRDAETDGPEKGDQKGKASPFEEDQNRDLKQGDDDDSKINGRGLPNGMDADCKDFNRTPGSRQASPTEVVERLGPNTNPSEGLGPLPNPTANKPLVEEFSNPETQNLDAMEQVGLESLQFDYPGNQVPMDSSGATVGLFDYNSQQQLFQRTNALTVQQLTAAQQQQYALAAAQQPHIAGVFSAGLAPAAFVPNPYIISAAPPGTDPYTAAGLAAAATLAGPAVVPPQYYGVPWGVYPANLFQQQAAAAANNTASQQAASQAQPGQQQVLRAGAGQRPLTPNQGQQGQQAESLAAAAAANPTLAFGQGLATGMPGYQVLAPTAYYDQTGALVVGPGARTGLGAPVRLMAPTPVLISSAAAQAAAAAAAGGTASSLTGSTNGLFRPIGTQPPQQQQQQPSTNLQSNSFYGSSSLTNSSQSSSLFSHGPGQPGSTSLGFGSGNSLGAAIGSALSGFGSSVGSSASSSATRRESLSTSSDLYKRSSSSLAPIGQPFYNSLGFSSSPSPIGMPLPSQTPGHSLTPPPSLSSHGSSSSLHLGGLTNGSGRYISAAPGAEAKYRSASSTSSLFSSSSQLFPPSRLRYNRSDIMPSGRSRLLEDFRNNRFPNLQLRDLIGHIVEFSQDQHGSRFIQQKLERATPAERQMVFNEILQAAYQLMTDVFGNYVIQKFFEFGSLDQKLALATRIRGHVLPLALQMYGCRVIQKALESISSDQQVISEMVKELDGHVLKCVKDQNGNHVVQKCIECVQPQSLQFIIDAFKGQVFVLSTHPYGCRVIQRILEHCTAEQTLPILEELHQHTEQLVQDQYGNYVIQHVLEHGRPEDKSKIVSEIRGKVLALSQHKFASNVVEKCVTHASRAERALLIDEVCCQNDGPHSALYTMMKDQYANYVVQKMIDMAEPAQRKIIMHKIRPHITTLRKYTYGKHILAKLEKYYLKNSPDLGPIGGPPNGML
UniProt Q3MIT2: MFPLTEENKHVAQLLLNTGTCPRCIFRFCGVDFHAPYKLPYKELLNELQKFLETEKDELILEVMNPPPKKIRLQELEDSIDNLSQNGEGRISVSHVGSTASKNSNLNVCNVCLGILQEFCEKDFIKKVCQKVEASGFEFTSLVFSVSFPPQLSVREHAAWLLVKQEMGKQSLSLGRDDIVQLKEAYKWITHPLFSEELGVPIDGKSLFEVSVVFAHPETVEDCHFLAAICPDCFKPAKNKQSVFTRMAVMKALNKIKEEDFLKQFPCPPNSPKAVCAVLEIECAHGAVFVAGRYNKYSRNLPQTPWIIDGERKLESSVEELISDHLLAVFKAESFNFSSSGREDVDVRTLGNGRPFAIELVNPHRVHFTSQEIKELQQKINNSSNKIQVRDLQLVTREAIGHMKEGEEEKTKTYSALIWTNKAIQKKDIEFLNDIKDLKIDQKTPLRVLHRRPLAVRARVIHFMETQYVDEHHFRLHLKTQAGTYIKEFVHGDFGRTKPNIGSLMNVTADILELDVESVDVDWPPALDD
UniProt Q5JS54: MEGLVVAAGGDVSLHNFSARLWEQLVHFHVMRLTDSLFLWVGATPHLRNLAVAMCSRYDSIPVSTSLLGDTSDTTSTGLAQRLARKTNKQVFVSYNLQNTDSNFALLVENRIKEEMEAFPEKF

This is one part of the list.

Compound in this assay: CC1=C(C(CC(=O)N1)C2=CC=C(C=C2)C(F)(F)F)C(=O)NC3=C(C=C4C(=C3)C=NN4)F
Put plainly: log2 fold change, soluble protein after heating vs DMSO (PISA); higher = thermal stabilisation; K562 cells, 10 uM, 30 min; active = over 0.2 and 3.5 SD of the protein, either way, in both replicates (recomputed). Put shortly: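 Soluble protein was defined as the supernatant after 21,000xg for 90 min. It came from K562 cells at 2×10^6 cells/mL given 10 μM compound for 30 min, heated in aliquots for 3 min across 48°C-58°C, pooled, and extracted in PBS with 0.5% NP-40 at 4°C, and was quantified by TMTpro 16plex LC-MS/MS with equalised channel sums. Thermal stability against control samples, from duplicates, is reported as log2 fold change.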
For the target PXMP2 (UniProt Q9NR77), the log2 fold change was inactive: 0.021.

Turning to PSPH (UniProt P78330), the log2 fold change is inactive: 0.023.

Consider QTRT1 (UniProt Q9BXR0), for which the log2 fold change is inactive: 0.001.

As for PUS7 isoform 2 (UniProt Q96PZ0), the log2 fold change is inactive: 0.019.

For PZP (UniProt P20742), the log2 fold change was inactive: 0.062.

QPCTL (UniProt Q9NXS2): the log2 fold change was inactive: 0.

On to PTMS (UniProt P20962), for which the log2 fold change is inactive: 0.015.

On to PWP2 (UniProt Q15269), for which the log2 fold change was inactive: -0.034.

Take PSMA8 (UniProt Q8TAA3): the log2 fold change was inactive: -0.021.

QDPR (UniProt P09417): the log2 fold change is inactive: 0.073.

Consider PSME1 (UniProt Q06323), for which the log2 fold change is inactive: -0.019.

For PSME2 (UniProt Q9UL46), the log2 fold change is inactive: 0.

Consider PRTFDC1 (UniProt Q9NRG1), for which the log2 fold change is inactive: 0.042.

On to PSMB1 (UniProt P20618), for which the log2 fold change was inactive: 0.02.

As for PTPRA (UniProt P18433), the log2 fold change is inactive: -0.021.

Take PSMD4 (UniProt P55036): the log2 fold change is inactive: 0.031.

Turning to PUS7L (UniProt Q9H0K6), the log2 fold change was inactive: -0.012.

On to PSMD14 (UniProt O00487), for which the log2 fold change was inactive: 0.021.

Regarding PUM2 (UniProt Q8TB72), the log2 fold change was inactive: -0.059.

Regarding PTPRC (UniProt P08575), the log2 fold change was inactive: -0.012.

With QTRT2 isoform 4 (UniProt Q9H974), the log2 fold change is inactive: -0.003.

Take PUS10 (UniProt Q3MIT2): the log2 fold change was inactive: -0.073.

PSMG4 isoform 2 (UniProt Q5JS54): the log2 fold change is inactive: 0.144.

Take PYCARD (UniProt Q9ULZ3): the log2 fold change is inactive: 0.037.
